From patent publication US7038020
Positions count from the first letter of the chain named. No constants are given. Whether binding was seen depends on the method and setting. Binding calls can cover weak binding; strength is not graded here.

B1: Fab clone LD1/2-6-3 (Fab, V domains shown)
VH: QVKLLESGGGVVQPGGSLRVACVASGFTFRNFGMHWVRQAPGKGLEWVAFIWFDASNKGYGDSVKGRFTVSRDNSKNTLYLQMNGLRAEDTAVYYCAREKAVRGISRYNYYMDVWGKGTTVTVSS
VL: VMTQSPSSLSASVGDRVTITCRASQSIIRYLNWYQHKPGKAPKLLIHTASSLQSGVPSRFSGSVSGTDFTLTISSLQPEDFATYYCQQSYTTPYTFGQGTKLQIK
B2: Fab clone LD1/2-6-33 (Fab, V domains shown)
VH: B1 VH
VL: B1 VL with S8F, T48A

Target: Partial D variant DVI (human)
Test: haemagglutination, DVI+ rbc

Binder | binding
B1 | binds
B2 | binds
